These are yes or no findings as the source states them, for the method shown. In cells and extracts the contact can be indirect. Some results given as binding are weak or reduced against the parent protein; the word gives no strength.
Biological target: eukaryotic initiation factor (eIF) 4E, from ribosomal salt wash (UniProt P29338)
Assay: pull-down; m7GTP-Sepharose affinity purification of eIF4E from RSW incubated with 0.5% DMSO or 50 uM silvestrol for 1 h at 30°C; beads 2 h at 4°C, washed with LCB (20 mM HEPES 7.5, 100 mM KCl, 0.2 mM EDTA) and LCB + 200 uM GDP, eluted with 200 uM m7GTP; Western blot

Protein sequences, listed by entry. Tags and fused reporters are not part of them.
UniProt P29338: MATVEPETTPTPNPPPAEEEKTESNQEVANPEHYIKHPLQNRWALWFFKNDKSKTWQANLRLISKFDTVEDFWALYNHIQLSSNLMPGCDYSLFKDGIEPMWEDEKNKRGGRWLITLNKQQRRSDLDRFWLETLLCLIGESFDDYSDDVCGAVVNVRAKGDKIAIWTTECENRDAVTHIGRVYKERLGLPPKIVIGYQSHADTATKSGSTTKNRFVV
UniProt P29562: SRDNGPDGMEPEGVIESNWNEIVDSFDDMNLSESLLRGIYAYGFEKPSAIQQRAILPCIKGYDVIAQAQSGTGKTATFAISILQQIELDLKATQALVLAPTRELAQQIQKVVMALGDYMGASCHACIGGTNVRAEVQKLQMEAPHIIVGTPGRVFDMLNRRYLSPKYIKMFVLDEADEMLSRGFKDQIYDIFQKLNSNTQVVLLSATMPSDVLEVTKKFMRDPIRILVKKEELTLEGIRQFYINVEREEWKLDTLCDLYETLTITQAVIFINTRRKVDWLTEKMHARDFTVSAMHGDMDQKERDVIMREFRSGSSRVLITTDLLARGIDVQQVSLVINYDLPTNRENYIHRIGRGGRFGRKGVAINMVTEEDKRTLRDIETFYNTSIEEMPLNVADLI

- binding: binds
Substance: eukaryotic initiation factor (eIF) 4A, from ribosomal salt wash (from UniProt P29562 1-398)
